Laboratory results taken from patent US20120121603A1 (THERACLONE SCIENCES, published 2012).
These are yes or no findings as the source states them, for the method shown. Some entries that bind do so weakly or less than the wild type.

Chains of the proteins cited; added tags and fusions are not shown.
UniProt P06821: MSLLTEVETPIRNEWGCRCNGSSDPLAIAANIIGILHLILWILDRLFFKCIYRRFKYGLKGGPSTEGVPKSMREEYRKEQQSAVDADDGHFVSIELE

Legend:
[1] = molecular target: influenza A/Puerto Rico/8/34 (PR8) virus, M2 on virions (Influenza A virus A/Puerto Rico/8/34 (PR8)) (UniProt P06821); test: binding to influenza virions
[2] = molecular target: influenza A/Puerto Rico/8/34 (PR8) virus, M2 on virions (Influenza A virus A/Puerto Rico/8/34 (PR8)) (UniProt P06821); test: ELISA, crude supernatant on influenza virus
[3] = molecular target: influenza A/Puerto Rico/8/34 (PR8) virus, M2 on virions (Influenza A virus A/Puerto Rico/8/34 (PR8)) (UniProt P06821); test: ELISA, crude supernatant on PR8 virus coated plates

Measured: binding

B1: 23K12 (antibody, V domains shown)
VH: EVQLVESGGGLVQPGGSLRISCAASGFTVSSNYMSWVRQAPGKGLEWVSVIYSGGSTYYADSVKGRFSFSRDNSKNTVFLQMNSLRAEDTAVYYCARCLSRMRGYGLDVWGQGTTVTVS
VL: DIQMTQSPSSLSASVGDRVTITCRTSQSISSYLNWYQQKPGKAPKLLIYAASSLQSGVPSRFSGSGSGTDFTLTISGLQPEDFATYYCQQSYSMPAFGQGTKLEIK
binds: all assays above
